Test results as given in the supplement of paper PMC5407854, “Inhibitor of ppGalNAc-T3-mediated O-glycosylation blocks cancer cell invasiveness and lowers FGF23 levels” (eLife, 2017).
In all, about 1,700 compounds were measured (“T2 sensor activation Q score (MG/GFP ratio z-score vs DMSO controls)”: median about 0.3, highest 2% from about 1.9 on). The list shows a part of the results.

Test system: ppGalNAc-T2 sensor
Test: T2 sensor activation Q score (MG/GFP ratio z-score vs DMSO controls) (SD units); higher = more sensor activation (inhibition of ppGalNAc-T2 glycosylation)
Settings: HEK293 sensor cells; 10 µM; 6 h
Method: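 Cells were treated with compound at 10 uM for 6 h, then MG/GFP ratio was read by flow cytometry (10,000 cells per well, duplicate wells). Q = (R - R_neg)/SD_neg relative to DMSO vehicle controls; the signal rises when the glycosyltransferase is inhibited.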

SMILES	T2 sensor activation Q score
CCOC(=O)c1c(C)oc(C)c(C(=O)OCC)c1=O	0.35
CCc1nc(N)nc(N)c1-c1ccc(N(C)Cc2ccccc2)c([N+](=O)[O-])c1	-1.25
Clc1ccc(-c2n[nH]c3c2Cc2ccccc2-3)cc1Cl	0.35
Nc1c(Cl)ncnc1NCCO	-1.25
CC1=CC2(C)NC(=O)C(C)C12 (configuration not stated)	-0.35
Nc1ccc(OC(=O)Nc2ccc(O)cc2)cc1	0.8
O=C1NC(=O)C(Cc2ccccc2)(c2cccnc2)N1 (configuration not stated)	-1.6
O=C1NC(=O)C2(CCc3ccccc32)N1 (configuration not stated)	1.3
CCOC(=O)c1nn(C)c2[nH]c(=O)n(C)c(=O)c12	1.25
Cc1ccc2ccc(C#N)cc2c1O	-0.1
O=[N+]([O-])c1ccc(-c2ncc(-c3ccc(Br)cc3)o2)cc1	-0.6
CC(C)(C#N)c1cc(Cn2cncn2)cc(C(C)(C)C#N)c1	-2.05
OCc1ncc(-c2ccccc2)s1	-0.4
Cc1nc2c(O)cccc2cc1CO	0.65
O=C(O)CCN1c2ccccc2Sc2ccccc21	-1.15
CCOC(=O)c1ccc(NC(=O)Oc2cc(C)c(Cl)cc2C(C)C)cc1	0.1
O=C1Cc2cccc(=O)c(O)c2C(=O)O1	0.1
O=C(Nc1ccc(Nc2ccccc2)cc1)Nc1ccccc1Cl	-1.35
COc1cc(-c2ccc(Nc3ccccc3C(=O)O)c(OC)c2)ccc1Nc1ccccc1C(=O)O	-0.5

SMILES	T2 sensor activation Q score
CC[C@]1(O)C[C@H]2CN(CCc3c([nH]c4ccccc34)[C@@](C(=O)OC)(c3cc4c(cc3OC)N(C=O)[C@H]3[C@@](O)(C(=O)OC)[C@H](OC(C)=O)[C@]5(CC)C=CCN6CC[C@]43[C@@H]65)C2)C1	1.4
COC(=O)c1cc(C)[nH]c2c(C)cc3nc4ccccc4c3c12	0.65
CC(=O)OC1C=CCC2C(=O)c3cccc(O)c3C(O)C12 (configuration not stated)	1.2
Oc1ccc(NC(=S)Nc2ccccc2)cc1	-0.9
CC1(CN2CCCC2)CCC(NC(=O)C(c2ccccc2)c2ccccc2)C(C)(C)O1 (configuration not stated)	0.2
C#CC(C)OCC1CNC(=S)O1 (configuration not stated)	-1.4
O=C(Nc1ccc(Nc2ccncc2)cc1)c1ccc(Nc2ccnc3ccc([N+](=O)[O-])cc23)cc1[N+](=O)[O-]	-0.05
Cc1ccc([S+]([O-])c2ccc([N+](=O)[O-])c3nonc23)cc1 (configuration not stated)	1.1
O=C(O)c1cccc2c1C(=O)c1cccc3snc-2c13	1.8
S=c1cn[nH]c2ccccc12	0.55
CCOC(=O)C(Cc1ccc(O)cc1)Nc1nc2ccccc2o1 (configuration not stated)	1.75
Nc1nc2nn(-c3ccccc3)nc2c(=O)[nH]1	0.8
Clc1ccccc1-c1nc2ccccc2[nH]1	0.9
CCCCNc1cc(Cl)nc(N)n1	-0.65
COc1cc(N=Nc2cccc(S(N)(=O)=O)c2)c2ccccc2c1N	-2.9
CC(OC(=O)Nc1cccc(Cl)c1)C(=O)O (configuration not stated)	1.1
CC(=O)Nc1ccc(Cc2nc3c([nH]2)c(=O)n(C)c(=O)n3C)cc1	0.6
CN(C)CCC1c2ccc(Cl)cc2CCc2cccnc21 (configuration not stated)	-0.05
O=C(Nc1ccc(Cl)c(Cl)c1)c1ccc(Cl)c(Cl)c1	-1.6

A draw from above in order of SMILES length, ascending.
SMILES	T2 sensor activation Q score
S=c1cn[nH]c2ccccc12	0.55
C#CC(C)OCC1CNC(=S)O1 (configuration not stated)	-1.4
Clc1ccccc1-c1nc2ccccc2[nH]1	0.9
CC(OC(=O)Nc1cccc(Cl)c1)C(=O)O (configuration not stated)	1.1
Nc1nc2nn(-c3ccccc3)nc2c(=O)[nH]1	0.8
O=C(O)c1cccc2c1C(=O)c1cccc3snc-2c13	1.8
CC(=O)OC1C=CCC2C(=O)c3cccc(O)c3C(O)C12 (configuration not stated)	1.2
COc1cc(N=Nc2cccc(S(N)(=O)=O)c2)c2ccccc2c1N	-2.9
Cc1ccc([S+]([O-])c2ccc([N+](=O)[O-])c3nonc23)cc1 (configuration not stated)	1.1
CC1(CN2CCCC2)CCC(NC(=O)C(c2ccccc2)c2ccccc2)C(C)(C)O1 (configuration not stated)	0.2
O=C(Nc1ccc(Nc2ccncc2)cc1)c1ccc(Nc2ccnc3ccc([N+](=O)[O-])cc23)cc1[N+](=O)[O-]	-0.05
CC[C@]1(O)C[C@H]2CN(CCc3c([nH]c4ccccc34)[C@@](C(=O)OC)(c3cc4c(cc3OC)N(C=O)[C@H]3[C@@](O)(C(=O)OC)[C@H](OC(C)=O)[C@]5(CC)C=CCN6CC[C@]43[C@@H]65)C2)C1	1.4

Continuation:

SMILES	T2 sensor activation Q score
COc1cc2c(cc1OC)C(/C=C/c1ccco1)=NCC2	1.1
CC1(C)O[C@H]2CC(=O)OC[C@]23[C@H]2CC[C@@]4(C)[C@H](c5ccoc5)OC(=O)[C@H]5O[C@]54[C@]2(C)C(=O)C[C@@H]13	-0.4
Cc1[nH]c(N=Nc2ccccc2)nc1N=Nc1ccccc1	-0.25
O=C(Nc1ccc(NC(=O)c2ccncc2)cc1)c1ccncc1	-0.5
CCOc1ccc(NC(=S)NC(=O)c2ccco2)cc1	0.15
CN(N=O)C(=O)N[C@@H]1[C@@H](O)[C@H](O)[C@@H](CO)O[C@@H]1O	-0.2
CC1CC=C(O)C12OCC(C)(C)CO2 (configuration not stated)	-2.3
COC(=O)C1=C(C(=O)OC)[C@@H]2CCC[C@H]1[C@H]1[C@@H]2N=NN1c1ccccc1	-1.4
COCC(O)Cn1ccnc1[N+](=O)[O-] (configuration not stated)	0.55
C#Cc1cccc(Nc2ncnc3cc(OCCOC)c(OCCOC)cc23)c1	0.75
O=C1OCC/C1=C\c1ccc2c(c1)OCO2	0.9
O=C(/C=C/c1cccnc1)c1ccccc1O	1.75
CC1(C)CCCC2(C)C(OCCO)=CC(=O)C=C12 (configuration not stated)	-0.45
COc1ccccc1N1C(=O)CC(Sc2ccccc2N)C1=O (configuration not stated)	0.2
CO[C@H](C(=O)[C@@H](O)[C@@H](C)O)[C@@H]1Cc2cc3cc(O[C@H]4C[C@@H](O[C@H]5C[C@@H](O)[C@H](O)[C@@H](C)O5)[C@H](O)[C@@H](C)O4)c(C)c(O)c3c(O)c2C(=O)[C@H]1O[C@H]1C[C@@H](O[C@H]2C[C@@H](O[C@H]3C[C@](C)(O)[C@H](O)[C@@H](C)O3)[C@@H](O)[C@@H](C)O2)[C@H](O)[C@@H](C)O1	-0.7
NC(=O)c1nc2c([nH]c1=O)CCCC2	-0.85
CC(=O)/C=C(\C)Nc1ccccc1O	0.55
O=C(O)/C=C\c1cc2c(cc1[N+](=O)[O-])OCO2	0.4
O=C1NCN(CCO)CN1	1.55
